Consider two substances from PMC11312485.

Sequences of proteins named here, by UniProt entry; tags and fusion partners are left off.
UniProt Q12834: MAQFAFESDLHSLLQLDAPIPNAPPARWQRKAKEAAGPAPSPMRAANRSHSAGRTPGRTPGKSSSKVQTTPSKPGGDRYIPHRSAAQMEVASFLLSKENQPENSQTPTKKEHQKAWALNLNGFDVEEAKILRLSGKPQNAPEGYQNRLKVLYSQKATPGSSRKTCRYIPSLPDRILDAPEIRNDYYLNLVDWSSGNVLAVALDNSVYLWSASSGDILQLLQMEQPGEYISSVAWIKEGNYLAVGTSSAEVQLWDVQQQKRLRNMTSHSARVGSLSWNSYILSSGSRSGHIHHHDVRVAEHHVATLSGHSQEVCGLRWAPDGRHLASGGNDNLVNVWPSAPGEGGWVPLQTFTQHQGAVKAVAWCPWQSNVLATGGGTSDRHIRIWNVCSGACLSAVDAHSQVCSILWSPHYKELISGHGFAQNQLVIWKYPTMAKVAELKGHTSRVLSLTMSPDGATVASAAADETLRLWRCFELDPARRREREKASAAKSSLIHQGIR
UniProt P27694: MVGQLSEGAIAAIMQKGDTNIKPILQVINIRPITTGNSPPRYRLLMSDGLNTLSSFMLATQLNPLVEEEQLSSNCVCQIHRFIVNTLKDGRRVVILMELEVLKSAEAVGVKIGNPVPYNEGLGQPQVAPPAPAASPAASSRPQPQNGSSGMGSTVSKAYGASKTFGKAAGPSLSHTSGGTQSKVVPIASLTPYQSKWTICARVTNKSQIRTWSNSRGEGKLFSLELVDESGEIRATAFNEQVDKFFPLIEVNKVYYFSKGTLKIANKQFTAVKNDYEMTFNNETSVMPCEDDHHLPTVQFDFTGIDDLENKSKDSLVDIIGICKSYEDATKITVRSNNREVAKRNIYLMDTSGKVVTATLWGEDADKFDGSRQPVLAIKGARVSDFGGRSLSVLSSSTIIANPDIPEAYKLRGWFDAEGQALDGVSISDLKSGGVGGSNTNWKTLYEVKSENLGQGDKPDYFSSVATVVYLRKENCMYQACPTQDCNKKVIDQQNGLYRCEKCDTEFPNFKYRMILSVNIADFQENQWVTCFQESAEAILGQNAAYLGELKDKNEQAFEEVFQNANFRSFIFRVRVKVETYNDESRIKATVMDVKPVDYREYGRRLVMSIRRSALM
UniProt P15927: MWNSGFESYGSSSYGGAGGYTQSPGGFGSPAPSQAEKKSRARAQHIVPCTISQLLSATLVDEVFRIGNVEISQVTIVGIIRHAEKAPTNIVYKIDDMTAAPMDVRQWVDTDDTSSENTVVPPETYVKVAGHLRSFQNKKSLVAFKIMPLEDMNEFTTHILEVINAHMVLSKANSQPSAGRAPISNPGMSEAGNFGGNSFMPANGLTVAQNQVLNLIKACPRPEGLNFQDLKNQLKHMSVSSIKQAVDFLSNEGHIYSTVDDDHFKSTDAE

Results are given in words; binding and its absence hold for the method and conditions named. Binding seen in cells or lysates may run through a third protein. Some results given as binding are weak or reduced against the parent protein; the word gives no strength.

This assay addresses Cell division cycle 20 (CDC20) (human (endogenous in KYSE450 and KYSE200)) (UniProt Q12834). Put plainly: co-IP; cells treated with 0 Gy (control) or 5 Gy X-ray; total lysates in RIPA buffer, CDC20 antibody 12 h at 4 °C, Protein G Sepharose; immunoprecipitates blotted for RPA1 and RPA2.

Regarding RPA1 (from UniProt P27694 1-616), the binding entry was “binds”.
For RPA2 (from UniProt P15927 1-270) the value was “binds”.
